In publication PMC6739877:
Results are given in words; binding and its absence hold for the method and conditions named. In cells and extracts the contact can be indirect. Some entries that bind do so weakly or less than the wild type.

By UniProt entry, the sequences of proteins in these tests, tags left out.
UniProt A0A3L7ISI1: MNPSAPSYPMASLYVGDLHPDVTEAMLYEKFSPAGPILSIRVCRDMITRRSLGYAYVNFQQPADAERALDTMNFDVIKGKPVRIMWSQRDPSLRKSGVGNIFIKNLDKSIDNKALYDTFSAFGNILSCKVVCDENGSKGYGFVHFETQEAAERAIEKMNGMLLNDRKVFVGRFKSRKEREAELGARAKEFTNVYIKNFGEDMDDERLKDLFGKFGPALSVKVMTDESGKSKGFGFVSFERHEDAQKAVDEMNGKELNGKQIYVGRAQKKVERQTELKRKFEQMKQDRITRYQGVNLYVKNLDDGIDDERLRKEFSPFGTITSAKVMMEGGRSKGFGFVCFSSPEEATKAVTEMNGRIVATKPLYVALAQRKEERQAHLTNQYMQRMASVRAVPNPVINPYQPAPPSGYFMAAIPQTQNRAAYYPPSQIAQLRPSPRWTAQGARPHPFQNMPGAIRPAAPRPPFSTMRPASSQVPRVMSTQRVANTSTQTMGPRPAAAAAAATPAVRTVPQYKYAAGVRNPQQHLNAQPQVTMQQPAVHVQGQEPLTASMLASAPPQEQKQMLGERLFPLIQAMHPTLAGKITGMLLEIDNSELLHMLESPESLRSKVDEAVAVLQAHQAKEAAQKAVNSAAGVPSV

Biological target: eIF4E cap-binding protein (hamster (endogenous in BHK))
Assay: pull-down; m7-GTP sepharose incubated overnight at 4°C with RNase-treated cytoplasmic lysates of BHK or BHK-NV replicon cells; bound proteins analysed by western blot

Substance: poly-A binding protein (PABP) (from UniProt A0A3L7ISI1 1-636)
- binding: binds
